System: A549.tTA cells
Experiment: Cell tracker assay (Dil) of GFP fusion peptides
Assay type: cell-based
Settings: relative to the other two peptides
Experimental: A549.tTA cells were infected with tet-regulatable retroviruses expressing GFP fusion peptides, stained with the cell tracker dye, Dil, and incubated at 37° C. for five days. After the incubation, fluorescent intensity of GFP and Dil was analyzed with MoFlo. A growth ratio was obtained as the ratio of mean Dil fluorescent intensity for the GFP positive population relative to that of the GFP negative population.
Effect of GFP fused peptides and their mutants. GFP fused peptides (#40, #41, #88 and their mutants) expressing A549.tTA cells were stained with Dil and fluorescent intensity of GFP and Dil was examined with MoFlo. A growth ratio was obtained as described above. Mutated residues were underlined. Amino acid sequences of #40, #41, and #88 were aligned with leucine-rich motifs of HIV-1 Rev (amino acid position 75 to 84, gi|16118296|gb|AAL12672.1|), HTLV-1 Rex (amino acid position 82 to 93, gi|7963889|gb|AAF71372.1), Mitogen-activated protein kinase kinase 1, MAPKK, (amino acid position 33 to 43, gi|5579478|ref|NP_002746.1|), Human homologue of mouse double minute 2, Hdm-2, (amino acid position 190 to 200, gi|4505137|ref|NP_002383.1|), and Protein kinase inhibitor, PKI (amino acid position 38 to 48, gi|203271|gb|AAA40867.1|).
Effect of GFP fused peptides and their mutants. […]

Sequence | expression level based on GFP FACS analysis
RLRRICSGILLIRRILGIFVRPVRP (GMDELYKEEAAKARLRRICSGILLIRRILGIFV; N-terminal biotin) [#88, Peptide 35, also called peptide 88; tested as GFP fusion] | 10 -fold lower
RWDPTRLLRFRFLRMLVRRSRPVRP (GFP fusion) [#40, anti-proliferative peptide tested as GFP fusion] | 10 -fold lower

Source: patent US20060216299A1, “Cell cycle targets and peptides” (Rigel Pharmaceuticals, Inc., priority 2002, published 2006)
